In brackets after ≈: the same amount, converted by molar mass.
System: Candida albicans ATCC 10231
Experiment: Minimal inhibitory concentration (MIC) on Sabraud's agar
Type: cell-based
Conditions: ATCC 10231 / ATCC 102331, 48 h, read-out: Minimal inhibitory concentration (MIC)
Procedure: The experiment (Table 1) was made by the usual MIC measuring method using Sabraud's agar. The MIC was determined 48 hours later.

`C[C@@H]1[C@H](O)[C@@H](C)/C=C/C=C/C=C/C=C/C=C/C=C/C=C/[C@H](O[C@@H]2O[C@H](C)[C@@H](O)[C@H](N)[C@@H]2O)C[C@@H]2O[C@](O)(C[C@@H](O)C[C@@H](O)[C@H](O)CC[C@@H](O)C[C@@H](O)CC(=O)O[C@H]1C)C[C@H](O)[C@H]2C(=O)O` [amphotericin B] was tested. Which MIC did it give?
Its MIC is 1.56 µg/mL (≈ 1.69 µM).

Reference: US5023079A, “Heptaene V-28-3 antibiotic derivative” (Ajinomoto Co., Inc., priority 1987, dated 1991)
